# Source: the supplement of paper PMC10735217
# Where a name gives a salt, the structure may show the parent alone. The list shows a part of the results. This data set is noisy: repeats of one test often differ as much as different tests do.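 The human kidney-derived cells carry a stably integrated construct of eight TEAD-binding elements driving luciferase, read by luminescence in a drug-repurposing library screen. A compound counts as a hit when its signal is more than five robust Z scores above the plate mean.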
# Tested on: HEK293A TEAD-LUC reporter
# Assay: TEAD-luciferase reporter activity (YAP activation), robust Z score vs plate; higher = stronger YAP/TEAD activation
# Conditions: 24 h
Structure (SMILES),TEAD-luciferase reporter activity (compound concentration: 200 nM),TEAD-luciferase reporter activity (compound concentration: 2 uM),TEAD-luciferase reporter activity (compound concentration: 10 uM)
CC(Oc1ccc(Cl)cc1)c1ccnc2ncnn12 (stereo not given),inactive: -0.0683,inactive: -0.185,inactive: -1.07
COc1ccc(F)c(F)c1C(=O)c1cnc(NC2CCN(S(C)(=O)=O)CC2)nc1N,inactive: 0.51,inactive: -2.52,inactive: -1.72
CC[C@H]1OC(=O)C[C@@H](O)[C@H](C)[C@@H](O[C@@H]2O[C@H](C)[C@@H](O)[C@H](N(C)C)[C@H]2O)[C@@H](CCN2C[C@H](C)C[C@H](C)C2)C[C@@H](C)C(=O)/C=C/C(C)=C/[C@@H]1CO[C@@H]1O[C@H](C)[C@@H](O)[C@@H](OC)[C@H]1OC [Tilmicosin],inactive: 0.683,inactive: 0.809,inactive: -0.285
Cn1c(=O)c2c(ncn2CCCNCC(O)c2cc(O)cc(O)c2)n(C)c1=O (stereo not given) [reproterol],inactive: -1.76,inactive: -0.758,inactive: 2.4
Cc1csc(NC(=O)C(C(=O)OC(C)C)=C2SCS2)n1 [mivotilate],inactive: 0.664,inactive: 2.02,inactive: 0.281
Cc1csc(NC(=O)C(C(=O)OC(C)C)=C2SCS2)n1 [Mivotilate],–,inactive: -0.389,–
CC1=C(C(=O)OC(C)C)C(c2cccc([N+](=O)[O-])c2)C(C(=O)OC(C)C)=C(C)N1,inactive: -0.86,inactive: 0.434,inactive: 0.936
CNCC12CC3CC(CC(C3)C1)C2,inactive: -0.403,inactive: -1.09,inactive: -1.38
CCO/N=C(\c1ccc(Br)cc1)C1CCN(C2(C)CCN(C(=O)c3c(C)cc[n+]([O-])c3C)CC2)CC1,inactive: -0.233,inactive: -0.501,inactive: -0.495
CC(C)=CCSCC(N)C(=O)O (stereo not given) [prenisteine],inactive: -0.579,inactive: 0.0752,inactive: -1.35
Cc1cccc(NC(=O)Nc2ccc(-c3csc4ncnc(N)c34)cc2)c1,inactive: -2.65,inactive: -2.43,inactive: -1.76
O=C1c2ccccc2-c2c1c1ccccc1c(=O)n2CC1CC1,inactive: 1.54,inactive: -1.07,inactive: 2.56
CC(C)(C)Sc1c(CC(C)(C)C(=O)O)n(Cc2ccc(Cl)cc2)c2ccc(OCc3ccc4ccccc4n3)cc12 [quiflapon],inactive: 0.197,inactive: -0.0347,inactive: 3.4
CCCCCCCC(=O)CC[C@@H]1[C@@H](C/C=C\CCCC(=O)OC(C)C)[C@@H](O)C[C@H]1O [isopropyl unoprostone],inactive: -0.102,inactive: 0.122,inactive: 1.35
O=C(O)Cc1ccccc1Nc1ccccc1,inactive: -1.35,inactive: -1.31,inactive: 0.239
Fc1ccc(CN2CCC(Nc3ccc(C(F)(F)F)nn3)CC2)cc1F,inactive: -0.364,inactive: 0.497,inactive: -1.99
CC(C)(C)c1cc(I)c(O)c(CN)c1,inactive: -1.28,inactive: -0.693,inactive: 2
CN=C(NC)NCc1ccc(OC)cc1,inactive: -1.04,inactive: 0.5,inactive: -1.78
CCNC(=O)[C@H]1O[C@@H](n2cnc3c(N)nc(C#CC(O)c4ccccc4)nc32)[C@H](O)[C@@H]1O (stereo not given in full),inactive: -1.59,inactive: -0.198,inactive: -0.353
CC[C@H](C)[C@@H]1NC(=O)[C@H](Cc2ccc(O)cc2)NC(=O)CCCSC[C@@H](C(=O)N(CC(=O)N[C@@H](CC(C)C)C(=O)NCC(N)=O)Cc2ccc(F)cc2)NC(=O)[C@H](CC(N)=O)NC(=O)[C@H](CCC(N)=O)NC1=O,inactive: 0.555,inactive: -0.866,inactive: -0.224
Cc1cnc(NC(=O)Nc2cc(Br)c(C)cc2OC[C@@H]2CNCCO2)cn1 [rabusertib],inactive: -0.592,inactive: -0.794,inactive: -2.35
"CCCCOP(=O)(O)OC[C@H]1O[C@@H](n2cc(C)c(=O)[nH]c2=O)C[C@@H]1OP(=O)(O)OCCCC [bisphosphocins, Lakewood-Amedex]",inactive: -0.244,inactive: 0.134,inactive: 3.04
COC(=O)C1=C(C)NC(C)=C(C(=O)OCCCN2C(=O)c3ccccc3S2(=O)=O)C1c1cccc(Cl)c1Cl (stereo not given),inactive: -2.06,inactive: -1.46,inactive: -1.1
C[C@@H]1N=C(N)NC(N(C)C)=N1 [imeglimin],inactive: -0.81,inactive: -1.21,inactive: 0.389
Cc1cccnc1NS(=O)(=O)c1ccc(C#Cc2ccc(O)c(C(=O)O)c2)cc1,inactive: -0.599,inactive: -0.41,inactive: 0.962
O=C(C1CCCN(C(=O)C2CC2)C1)N1CCC(N2CCCC2=O)CC1 (stereo not given),inactive: -1.75,–,inactive: 0.032
C[C@@H](O)c1nc2cnc3ccsc3c2n1[C@H]1CC[C@@H](CC#N)OC1,inactive: -1.07,inactive: 1.01,inactive: -0.0837

Structure (SMILES),TEAD-luciferase reporter activity (compound concentration: 200 nM),TEAD-luciferase reporter activity (compound concentration: 2 uM),TEAD-luciferase reporter activity (compound concentration: 10 uM)
COc1cc2c(cc1OC)C(=O)C(CN1CCC(O)(c3ccccc3)CC1)CC2 (stereo not given),inactive: 0.0543,inactive: 0.0529,inactive: 1.27
"CC(C)(C(=O)O)c1ccc(C(O)CCCN2CCC(C(O)(c3ccccc3)c3ccccc3)CC2)cc1 (stereo not given) [fexofenadine, daily]",–,inactive: -1.05,–
CC(C)(C(=O)O)c1ccc(C(O)CCCN2CCC(C(O)(c3ccccc3)c3ccccc3)CC2)cc1 (stereo not given),inactive: -1.44,–,inactive: -0.225
CCS(=O)(=O)c1ccc(OC)c(Nc2cccc(N(C)c3ccc4c(C)n[nH]c4c3)n2)c1,inactive: 1.29,inactive: -1.38,inactive: -1.07
O=C(OCCN1CCCCCC1)C(c1ccsc1)C1CCCCC1 (stereo not given) [cetiedil],inactive: -0.372,inactive: 1.68,inactive: 2.64
CC(C)(Oc1ccc(Cl)cc1)C(=O)OCc1cccc(CO)n1,inactive: -0.088,inactive: -0.761,inactive: 1.68
O=C(O)CC1Sc2ccccc2N(Cc2nc3c(F)c(F)cc(F)c3s2)C1=O (stereo not given),inactive: -0.836,inactive: -1.17,inactive: 4.66
C[N+]1(CCC(O)(c2ccccc2)c2cccs2)CCOCC1 (stereo not given) [tiemonium metilsulfate],inactive: -1.18,inactive: 0.959,inactive: 0.711
N=C(N)N/N=C(/c1ccccc1)c1cc(Cl)ccc1N,inactive: -0.559,inactive: -1.67,inactive: 1.96
CC(C)[C@@H]1NC(=O)[C@H](CCCCN)NC(=O)[C@@H](Cc2c[nH]c3ccccc23)NC(=O)[C@H](Cc2ccc(O)cc2)NC(=O)[C@@H](NC(=O)[C@H](N)Cc2ccc3ccccc3c2)CSSC[C@@H](C(=O)N[C@H](C(N)=O)[C@@H](C)O)NC1=O,inactive: -2.62,inactive: -0.435,inactive: -1.15
CCOC(=O)CCCCCCCCC(C)c1ccc(I)cc1 (stereo not given),inactive: -0.916,inactive: 0.389,inactive: 0.319
Cc1sc(C)c2c1SCc1cnn(C)c1-2,inactive: 1.04,inactive: -2.15,inactive: -0.211
Clc1cccc(Cl)c1NC1=NCCN1 [Clonidine hydrochloride],inactive: 3.41,–,inactive: 0.117
Clc1cccc(Cl)c1NC1=NCCN1 [Clonidine],–,inactive: 0.814,–
COC(=O)c1nc2cc(Cl)c3cccnc3c2o1,inactive: -1.39,inactive: -1.4,inactive: 2.86
CCOc1ccc(C[C@@H](NC(=O)c2ccccc2)C(=O)N[C@@H](Cc2ccccc2)C(=O)NCc2ccc(CN)cc2)cc1,inactive: 0.39,inactive: -1.37,inactive: 1.27
CS(=O)(=O)c1cc(F)cc2c3c(n(Cc4ccc(Cl)cc4)c12)[C@@H](CC(=O)O)CC3 [laropiprant],inactive: -0.914,inactive: -0.42,inactive: -0.145
O=C(Nc1ccc(Br)c2ccccc12)C1CCN(C(=O)Cn2c(=O)sc3ccc(Cl)cc32)CC1,inactive: 0.526,inactive: -1.53,inactive: 0.49
O=C(CN(CCC1CCCC1)C(=O)N1CCC[C@H]1C(=O)Nc1ccc2c(c1)OCO2)NO,inactive: -0.184,inactive: -1,inactive: 1.61
CCc1c(C(=O)c2cc(C)cc(C)c2)[nH]c(=O)[nH]c1=O,inactive: -1.43,inactive: -0.525,inactive: -1.58
CC[C@@H](C)[C@@H]1NC(=O)[C@H]([C@@H](C)CC)NC(=O)[C@@H](Cc2c[nH]c3ccccc23)NC(=O)CCSCC[C@@H](C(=O)N(C)[C@H](CO)CCCN)NC(=O)[C@H](CC(N)=O)NC1=O,inactive: 1.65,inactive: -0.607,inactive: -0.657
CC(C)[N+](C)(C)CC(O)COc1cccc2ccccc12 (stereo not given),inactive: 3.32,inactive: -0.282,inactive: 0.412
CC(C(=O)O)c1cccc2c(-c3ccccc3)coc12 (stereo not given) [furaprofen],inactive: 0.63,inactive: -0.315,inactive: -1.65
OC(CN1CCC(Cc2ccc(F)cc2)CC1)c1ccc(Cl)cc1 (stereo not given) [Eliprodil],inactive: -1.35,inactive: -1.66,inactive: 2.9
CCC(CC)Nc1c2c(nc3c(-c4ccc(OC)cc4Cl)c(C)nn13)CCC2,inactive: -0.953,inactive: -0.757,inactive: -1.38
COC(CN1CCN(c2ccccc2)CC1)c1ccc(C)nc1 (stereo not given),inactive: -0.502,inactive: 1.53,inactive: 2.21

# 15 entries from above, tab-delimited:
Structure (SMILES)	TEAD-luciferase reporter activity (compound concentration: 200 nM)	TEAD-luciferase reporter activity (compound concentration: 2 uM)	TEAD-luciferase reporter activity (compound concentration: 10 uM)
CC(C)(Oc1ccc(Cl)cc1)C(=O)OCc1cccc(CO)n1	inactive: -0.088	inactive: -0.761	inactive: 1.68
O=C(O)CC1Sc2ccccc2N(Cc2nc3c(F)c(F)cc(F)c3s2)C1=O (stereo not given)	inactive: -0.836	inactive: -1.17	inactive: 4.66
C[N+]1(CCC(O)(c2ccccc2)c2cccs2)CCOCC1 (stereo not given) [tiemonium metilsulfate]	inactive: -1.18	inactive: 0.959	inactive: 0.711
N=C(N)N/N=C(/c1ccccc1)c1cc(Cl)ccc1N	inactive: -0.559	inactive: -1.67	inactive: 1.96
CC(C)[C@@H]1NC(=O)[C@H](CCCCN)NC(=O)[C@@H](Cc2c[nH]c3ccccc23)NC(=O)[C@H](Cc2ccc(O)cc2)NC(=O)[C@@H](NC(=O)[C@H](N)Cc2ccc3ccccc3c2)CSSC[C@@H](C(=O)N[C@H](C(N)=O)[C@@H](C)O)NC1=O	inactive: -2.62	inactive: -0.435	inactive: -1.15
CCOC(=O)CCCCCCCCC(C)c1ccc(I)cc1 (stereo not given)	inactive: -0.916	inactive: 0.389	inactive: 0.319
Cc1sc(C)c2c1SCc1cnn(C)c1-2	inactive: 1.04	inactive: -2.15	inactive: -0.211
Clc1cccc(Cl)c1NC1=NCCN1 [Clonidine hydrochloride]	inactive: 3.41	–	inactive: 0.117
Clc1cccc(Cl)c1NC1=NCCN1 [Clonidine]	–	inactive: 0.814	–
COC(=O)c1nc2cc(Cl)c3cccnc3c2o1	inactive: -1.39	inactive: -1.4	inactive: 2.86
CCOc1ccc(C[C@@H](NC(=O)c2ccccc2)C(=O)N[C@@H](Cc2ccccc2)C(=O)NCc2ccc(CN)cc2)cc1	inactive: 0.39	inactive: -1.37	inactive: 1.27
CS(=O)(=O)c1cc(F)cc2c3c(n(Cc4ccc(Cl)cc4)c12)[C@@H](CC(=O)O)CC3 [laropiprant]	inactive: -0.914	inactive: -0.42	inactive: -0.145
O=C(Nc1ccc(Br)c2ccccc12)C1CCN(C(=O)Cn2c(=O)sc3ccc(Cl)cc32)CC1	inactive: 0.526	inactive: -1.53	inactive: 0.49
O=C(CN(CCC1CCCC1)C(=O)N1CCC[C@H]1C(=O)Nc1ccc2c(c1)OCO2)NO	inactive: -0.184	inactive: -1	inactive: 1.61
CCc1c(C(=O)c2cc(C)cc(C)c2)[nH]c(=O)[nH]c1=O	inactive: -1.43	inactive: -0.525	inactive: -1.58
